# Screening data, single-dose tests

Amino acid sequences for entries named in this document (tags omitted). Residues count along the entry.
UniProt P9WFT3, whole entry: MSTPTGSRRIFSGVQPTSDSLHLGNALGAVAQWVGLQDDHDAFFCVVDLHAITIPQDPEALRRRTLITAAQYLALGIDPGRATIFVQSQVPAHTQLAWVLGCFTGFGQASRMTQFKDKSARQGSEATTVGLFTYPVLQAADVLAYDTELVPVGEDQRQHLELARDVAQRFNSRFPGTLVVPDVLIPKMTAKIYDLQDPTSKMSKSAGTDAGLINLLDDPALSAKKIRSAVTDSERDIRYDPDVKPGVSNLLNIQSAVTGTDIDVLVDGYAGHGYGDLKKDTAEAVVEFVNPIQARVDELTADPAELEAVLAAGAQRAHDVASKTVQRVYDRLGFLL
UniProt I6X8D2, whole entry: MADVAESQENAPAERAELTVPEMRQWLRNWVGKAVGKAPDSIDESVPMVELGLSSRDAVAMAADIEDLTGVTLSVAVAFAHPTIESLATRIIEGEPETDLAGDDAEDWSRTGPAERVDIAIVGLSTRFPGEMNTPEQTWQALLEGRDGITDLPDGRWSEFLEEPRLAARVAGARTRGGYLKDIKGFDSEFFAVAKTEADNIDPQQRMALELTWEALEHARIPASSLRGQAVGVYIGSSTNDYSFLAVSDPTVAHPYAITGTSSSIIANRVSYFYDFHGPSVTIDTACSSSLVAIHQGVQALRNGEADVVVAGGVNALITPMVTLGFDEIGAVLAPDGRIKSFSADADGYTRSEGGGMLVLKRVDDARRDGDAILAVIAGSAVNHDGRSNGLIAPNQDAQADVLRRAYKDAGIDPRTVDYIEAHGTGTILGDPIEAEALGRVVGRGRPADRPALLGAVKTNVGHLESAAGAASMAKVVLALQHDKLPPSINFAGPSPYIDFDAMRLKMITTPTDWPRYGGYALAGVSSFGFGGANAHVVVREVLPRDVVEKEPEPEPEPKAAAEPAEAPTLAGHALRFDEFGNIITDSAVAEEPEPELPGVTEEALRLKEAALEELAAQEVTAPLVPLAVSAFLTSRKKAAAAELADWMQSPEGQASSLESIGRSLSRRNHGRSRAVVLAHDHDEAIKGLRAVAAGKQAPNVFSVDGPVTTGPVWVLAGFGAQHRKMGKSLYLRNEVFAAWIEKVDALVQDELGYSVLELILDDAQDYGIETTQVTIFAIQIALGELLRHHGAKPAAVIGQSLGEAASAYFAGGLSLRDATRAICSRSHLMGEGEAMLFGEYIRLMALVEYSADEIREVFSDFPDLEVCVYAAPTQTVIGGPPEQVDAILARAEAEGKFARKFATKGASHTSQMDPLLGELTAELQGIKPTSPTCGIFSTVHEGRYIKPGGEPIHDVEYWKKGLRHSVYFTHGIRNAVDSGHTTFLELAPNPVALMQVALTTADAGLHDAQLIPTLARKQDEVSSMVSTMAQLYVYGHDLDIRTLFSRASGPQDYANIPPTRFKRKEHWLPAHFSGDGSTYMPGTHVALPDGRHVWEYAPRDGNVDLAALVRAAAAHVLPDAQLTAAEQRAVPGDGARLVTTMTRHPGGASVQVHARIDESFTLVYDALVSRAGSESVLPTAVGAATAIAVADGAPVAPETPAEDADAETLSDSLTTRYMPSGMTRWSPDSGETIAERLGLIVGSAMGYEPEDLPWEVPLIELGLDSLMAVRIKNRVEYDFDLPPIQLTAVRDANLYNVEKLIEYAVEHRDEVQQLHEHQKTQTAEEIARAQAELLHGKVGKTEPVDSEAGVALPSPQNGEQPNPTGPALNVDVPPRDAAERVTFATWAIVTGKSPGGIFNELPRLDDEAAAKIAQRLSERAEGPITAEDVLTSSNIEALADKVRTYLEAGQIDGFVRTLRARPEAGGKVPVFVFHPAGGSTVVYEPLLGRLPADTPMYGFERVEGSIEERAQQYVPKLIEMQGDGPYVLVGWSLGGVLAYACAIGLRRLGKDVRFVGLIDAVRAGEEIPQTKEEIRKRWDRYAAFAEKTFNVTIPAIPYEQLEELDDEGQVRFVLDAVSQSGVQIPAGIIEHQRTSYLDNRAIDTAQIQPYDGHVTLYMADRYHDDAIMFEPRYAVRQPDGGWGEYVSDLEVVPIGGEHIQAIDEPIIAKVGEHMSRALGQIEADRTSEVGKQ
UniProt A4I591, 1-473: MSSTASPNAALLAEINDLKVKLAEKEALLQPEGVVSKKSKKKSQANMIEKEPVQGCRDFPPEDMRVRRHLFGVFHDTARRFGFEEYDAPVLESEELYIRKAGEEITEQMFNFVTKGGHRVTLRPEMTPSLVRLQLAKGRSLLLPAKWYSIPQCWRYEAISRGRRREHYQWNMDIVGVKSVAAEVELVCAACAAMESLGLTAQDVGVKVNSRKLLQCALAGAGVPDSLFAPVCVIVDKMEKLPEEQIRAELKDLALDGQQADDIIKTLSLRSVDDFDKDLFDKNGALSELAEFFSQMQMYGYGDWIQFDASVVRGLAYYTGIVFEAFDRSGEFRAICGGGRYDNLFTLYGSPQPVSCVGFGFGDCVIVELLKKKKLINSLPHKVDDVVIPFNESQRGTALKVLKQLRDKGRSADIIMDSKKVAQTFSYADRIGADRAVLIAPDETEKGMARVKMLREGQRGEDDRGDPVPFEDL
UniProt Q4DA54, 1-478: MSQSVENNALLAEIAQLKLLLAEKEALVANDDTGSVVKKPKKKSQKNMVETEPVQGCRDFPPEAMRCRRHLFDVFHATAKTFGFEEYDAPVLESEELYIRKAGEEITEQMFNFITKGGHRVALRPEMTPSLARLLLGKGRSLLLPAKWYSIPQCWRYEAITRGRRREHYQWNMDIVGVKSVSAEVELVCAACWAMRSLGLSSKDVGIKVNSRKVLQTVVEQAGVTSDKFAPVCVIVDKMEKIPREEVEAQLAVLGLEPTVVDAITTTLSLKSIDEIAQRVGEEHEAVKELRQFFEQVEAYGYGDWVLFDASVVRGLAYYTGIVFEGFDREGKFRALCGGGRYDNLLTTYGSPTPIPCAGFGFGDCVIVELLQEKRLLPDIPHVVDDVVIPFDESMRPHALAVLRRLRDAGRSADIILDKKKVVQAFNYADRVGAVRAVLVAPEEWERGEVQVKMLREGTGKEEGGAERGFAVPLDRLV

MtTrpRS: 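Tryptophan-tRNA ligase, Mycobacterium tuberculosis (UniProt P9WFT3). Enzyme assay of tryptophanyl-tRNA synthetase; the read-out is not stated. Tested at 10 µM. Higher most likely means stronger inhibition; the record gives no direction and few retests gave an IC50. Size under these conditions: about 65,000 compounds, about 64 of them at 50% or above in at least one test.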
Pks13 thioesterase: 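Enzyme assay of the thioesterase domain of polyketide synthase 13; the read-out is not stated. Target: Polyketide synthase Pks13, Mycobacterium tuberculosis (UniProt I6X8D2). Compounds at 30 µM. Higher reads as stronger inhibition (inferred from which compounds were picked for retests). Size under these conditions: about 67,000 compounds, about 300 of them at 50% or above in at least one test.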
LiHisRS: 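Histidine-tRNA ligase, Leishmania infantum (UniProt A4I591). Enzyme assay of histidyl-tRNA synthetase; the read-out is not stated. Compounds at 30 µM. The record gives no direction; compounds that gave an IC50 in retests scored well above the rest, so higher reads as stronger inhibition. The assay is labelled LdHisRS but filed under L. infantum. Of about 69,000 compounds tested this way, about 410 (0.6%) reached 50% or more in at least one test.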
TcHisRS: 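Histidine-tRNA ligase, Trypanosoma cruzi CL Brener (UniProt Q4DA54). Enzyme assay of histidyl-tRNA synthetase; the read-out is not stated. Compounds at 30 µM. Direction is inferred from retests: higher values go with stronger inhibition. About 69,000 compounds were tested under these conditions; 0.045% (about 31) showed 50% or more at least once.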

Values are the deposited “Percent Effect”, in %.
How 0% and 100% were set is not recorded. Most values in the screen are low, and negative values occur.
This is an unselected part of the compounds tested.

* O=C(Nc1ccc(S(=O)(=O)Nc2ccccc2)cc1)N1CCCC1 | MtTrpRS: -1.559%; Pks13 thioesterase: -6.163%; LiHisRS: -2.632%; TcHisRS: -3.911%
* O=C1CCC2(CCN(c3ncc(F)cn3)CC2)N1Cc1ccncc1 | MtTrpRS: 8.685%; Pks13 thioesterase: -20.84%; LiHisRS: 18.58%; TcHisRS: 1.075%
* COCCCn1cnnc1C(C)NC(=O)c1[nH]c2ccc(C)cc2c1C (stereo not shown) | MtTrpRS: 3.339%; Pks13 thioesterase: -10.97%; LiHisRS: 20%; TcHisRS: 1.031%
* Cc1noc(C)c1CN1CCOC2(CCCN(c3nccs3)C2)C1 (stereo not shown) | MtTrpRS: 8.919%; Pks13 thioesterase: -14.76%; LiHisRS: 11.32%; TcHisRS: 5.946%
* Cc1nc(C2CCCN2C(=O)c2ccc(N(C)C)nn2)no1 (stereo not shown) | MtTrpRS: 3.387%; Pks13 thioesterase: -15.82%; LiHisRS: 18.35%; TcHisRS: 11.37%
* CCn1nc(C)cc1C(=O)Nc1cc(F)ccc1OCC1CCCO1 (stereo not shown) | MtTrpRS: -4.926%; Pks13 thioesterase: -18.53%; LiHisRS: 2.667%; TcHisRS: -1.132%
* O=C(Nc1ccc(Cn2cccn2)cc1)N1CCC(CO)CC1 | MtTrpRS: 0.3704%; Pks13 thioesterase: -3.047%; LiHisRS: 22.22%; TcHisRS: 13.1%
* Fc1ccccc1-c1noc2c1CN(CC1CC1)CC2 | MtTrpRS: 0.2138%; Pks13 thioesterase: -60.78%; LiHisRS: 30.77%; TcHisRS: 4.132%
* O=C1CCCC2=C1C(c1ccccc1Cl)Nc1nonc1N2 (stereo not shown) | MtTrpRS: -2.716%; Pks13 thioesterase: -21.31%; LiHisRS: 18.75%; TcHisRS: 8.333%
* COc1ccc(CN2CCC3(CC2)CCN(c2ncccn2)CC3)cc1 | MtTrpRS: -1.133%; Pks13 thioesterase: -37.49%; LiHisRS: 4.511%; TcHisRS: 0.5525%
* OC(CNc1nc(C2CCCC2)nc2c1CCNCC2)C(F)(F)F (stereo not shown) | MtTrpRS: 1.147%; Pks13 thioesterase: -27.47%; LiHisRS: 15.49%; TcHisRS: -0.5525%
* CCc1nc(C)c(C(=O)NCCNc2ncnc3sccc23)s1 | MtTrpRS: -2.384%; Pks13 thioesterase: -12.74%; LiHisRS: 6.593%; TcHisRS: 3.012%
* CN1CCNC(Cc2ccc(-c3ccncc3)cc2)C1=O (stereo not shown) | MtTrpRS: -2.261%; Pks13 thioesterase: 1.557%; LiHisRS: 28.42%; TcHisRS: 2.985%
* Cc1cc(C)n(C2CN(CC(=O)N(C)Cc3cnn(C)c3)C2)n1 | MtTrpRS: -0.07241%; Pks13 thioesterase: -6.401%; LiHisRS: 33.04%; TcHisRS: 30%
* O=C(NCc1cc[nH]n1)N1CCN(c2ccccc2Cl)CC1 | MtTrpRS: 2.437%; Pks13 thioesterase: -12.2%; LiHisRS: 25.76%; TcHisRS: -1.515%
* CCOCc1nc2c(c(NC(CC)c3cccnc3)n1)CCNCC2 (stereo not shown) | MtTrpRS: -3.003%; Pks13 thioesterase: -12.2%; LiHisRS: 10.45%; TcHisRS: 3.191%
* CC(=O)Nc1ccc(CNC2CC(=O)N(Cc3cccc(F)c3)C2)cc1 (stereo not shown) | MtTrpRS: -0.387%; Pks13 thioesterase: -11.22%; LiHisRS: 15.38%; TcHisRS: 5.833%
* CCn1nnc2cc(C(=O)N3CCCC3Cn3cc(C)cn3)ccc21 (stereo not shown) | MtTrpRS: 1.967%; Pks13 thioesterase: -27.69%; LiHisRS: -1.124%; TcHisRS: 2.256%
* O=C(CC1CCCC1)N1CCC(c2nnc(-c3ccccn3)o2)CC1 | MtTrpRS: 1.055%; Pks13 thioesterase: -11.5%; LiHisRS: 5.634%; TcHisRS: 3.788%
* CC1CCN(S(=O)(=O)N2CCCN(CC3CCCO3)CC2)CC1 (stereo not shown) | MtTrpRS: 4.126%; Pks13 thioesterase: -10.2%; LiHisRS: 10.11%; TcHisRS: 0.5181%
* Cc1ncsc1C(=O)N1CCc2[nH]nc(-c3ccc4c(c3)OCO4)c2C1 | MtTrpRS: 8.071%; Pks13 thioesterase: 8.839%; LiHisRS: 19.74%; TcHisRS: 0%
* Cc1noc(C2CCCN(C(=O)c3cc(Cl)c(Cl)n3C)C2)n1 (stereo not shown) | MtTrpRS: -0.9338%; Pks13 thioesterase: -50.28%; LiHisRS: 15%; TcHisRS: 6.818%
* O=C(c1cnccn1)N1CC[C@@H]2CO[C@@H](CN3CCCC3)[C@@H]2C1 | MtTrpRS: -3.787%; Pks13 thioesterase: -1.128%; LiHisRS: 0%; TcHisRS: 1.149%
* Cn1cnc2c(N3CCCC3)nc(C3CCN(CC4CC4)CC3)cc21 | MtTrpRS: 0.3255%; Pks13 thioesterase: -4.008%; LiHisRS: 25.71%; TcHisRS: 8.824%

The last 2 entries again:

| structure | MtTrpRS | Pks13 thioesterase | LiHisRS | TcHisRS |
|---|---|---|---|---|
| `O=C(c1cnccn1)N1CC[C@@H]2CO[C@@H](CN3CCCC3)[C@@H]2C1` | -3.787 | -1.128 | 0 | 1.149 |
| `Cn1cnc2c(N3CCCC3)nc(C3CCN(CC4CC4)CC3)cc21` | 0.3255 | -4.008 | 25.71 | 8.824 |

Data taken from ChEMBL document CHEMBL3988442, “University of Dundee, Small-Polar-MMV Screening Library” (2021).